From PubChem BioAssay record AID504749 (NCATS, 2011).

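Malaria parasite (P. falciparum) lines kept in red blood cells; parasite DNA is measured by SYBR Green fluorescence after lysis, 72 h after compound addition.
Each compound was titrated across a series from about 0.000037 to 29 µM.
The number is the fitted AC50, the concentration giving a half-maximal change in signal; a lower value means higher potency, whether the curve shows a decrease or an increase.
Calls follow the curve class and fit quality: every row here is inconclusive, covering signal-raising curves and weak, poorly fitted, partial or highest-dose-only inhibition curves.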

Values are in nM.
All entries here are filed as inconclusive.
Only part of the assay is shown, chiefly results filed as inconclusive.
A potency from a partial, single-point or poor curve is only a rough figure.
Some entries filed as inconclusive have a full curve.
The first word of each remark tells which way the curve ran; it can be opposite to the aim of the assay.

SMILES | condition | Potency (nM) | curve
FC(F)(F)c1cccc(C2=CCN(CCc3ccc4ccccc4c3)CC2)c1 | CP256 | 17782 | inhibitor, single point
FC(F)(F)c1cccc(C2=CCN(CCc3ccc4ccccc4c3)CC2)c1 | CP191 | 17782 | inhibitor, single point
FC(F)(F)c1cccc(C2=CCN(CCc3ccc4ccccc4c3)CC2)c1 | CP268 | 4256 | inhibitor, single point
CC1(C(=O)O)CCC2(C)CCC3(C)C(=CC(=O)C4C5(C)CCC(O)C(C)(C)C5CCC43C)C2C1 (centres undefined) | CP266 | 301.3 | inhibitor, partial curve, poor fit
CC1(C(=O)O)CCC2(C)CCC3(C)C(=CC(=O)C4C5(C)CCC(O)C(C)(C)C5CCC43C)C2C1 (centres undefined) | DIV17 | 13459 | inhibitor, partial curve, poor fit
C[C@H]1O[C@@H](n2cc(F)c(=O)[nH]c2=O)[C@H](O)[C@@H]1O | CP266 | 151 | inhibitor, full curve, poor fit
C[C@H]1O[C@@H](n2cc(F)c(=O)[nH]c2=O)[C@H](O)[C@@H]1O | ICS | 14125 | inhibitor, partial curve, poor fit
CCC(C)n1ncn(-c2ccc(N3CCN(c4ccc(OCC5COC(Cn6cncn6)(c6ccc(Cl)cc6Cl)O5)cc4)CC3)cc2)c1=O (centres undefined) | Dd2 | 2818 | inhibitor, partial curve
CCC(C)n1ncn(-c2ccc(N3CCN(c4ccc(OCC5COC(Cn6cncn6)(c6ccc(Cl)cc6Cl)O5)cc4)CC3)cc2)c1=O (centres undefined) | PC26 | 1901 | inhibitor, partial curve, poor fit
CCC(C)n1ncn(-c2ccc(N3CCN(c4ccc(OCC5COC(Cn6cncn6)(c6ccc(Cl)cc6Cl)O5)cc4)CC3)cc2)c1=O (centres undefined) | CP215 | 15101 | inhibitor, single point
CC(C)(C)CC(C)(C)c1ccc(OCCOCC[N+](C)(C)Cc2ccccc2)cc1 | CP262 | 4256 | inhibitor, single point
C=C(CC[C@@H](C)[C@H]1CCC2[C@]1(C)CC[C@]13C[C@@]14CCC(OC(=O)/C=C/c1ccc(O)c(OC)c1)C(C)(C)[C@@H]4CC[C@@]23C)C(C)C (some centres undefined) | 7G8 | 7080 | inhibitor, partial curve, poor fit
Cc1ncc([N+](=O)[O-])n1CCO | CP266 | 15.1 | activator, full curve, poor fit
Cc1ncc([N+](=O)[O-])n1CCO | CP215 | 19011 | inhibitor, partial curve, poor fit
CCN(CC)CCOc1ccccc1OC | GB4 | 10690 | inhibitor, partial curve, poor fit
CCN(CC)CCOc1ccccc1OC | W2 | 13459 | inhibitor, partial curve, poor fit
COc1cc(N)c(Cl)cc1C(=O)NC1CCN(Cc2ccccc2)CC1 | CP191 | 6310 | inhibitor, partial curve, poor fit
COc1cc(N)c(Cl)cc1C(=O)NC1CCN(Cc2ccccc2)CC1 | parasite line A | 3981 | inhibitor, partial curve, poor fit
C[C@H](Oc1ccccc1)C(=O)N[C@@H]1C(=O)N2[C@@H]1SC(C)(C)[C@@H]2C(=O)O | CP335 | 8087 | inhibitor, single point
CC(=O)Oc1cccc2c1C(=O)c1c(OC(C)=O)cc(C(=O)O)cc1C2=O | N140 | 707.9 | inhibitor, partial curve
CC(=O)Oc1cccc2c1C(=O)c1c(OC(C)=O)cc(C(=O)O)cc1C2=O | CP211 | 16944 | inhibitor, single point
Nc1ccccc1C(=O)O | CP266 | 6.7 | activator, full curve
CC([C@H](O)c1ccccc1)N(C)C (some centres undefined) | GB4 | 19011 | inhibitor, single point
CC([C@H](O)c1ccccc1)N(C)C (some centres undefined) | ICS | 10000 | inhibitor, single point
CC([C@H](O)c1ccccc1)N(C)C (some centres undefined) | DIV17 | 9528 | inhibitor, partial curve, poor fit
CC([C@H](O)c1ccccc1)N(C)C (some centres undefined) | Dd2 | 10000 | inhibitor, partial curve
CC([C@H](O)c1ccccc1)N(C)C (some centres undefined) | CP237 | 17782 | inhibitor, single point
CC([C@H](O)c1ccccc1)N(C)C (some centres undefined) | DIV14 | 13459 | inhibitor, partial curve
COc1cnc(NS(=O)(=O)c2ccc(N)cc2)nc1 | CP266 | 18.1 | inhibitor, full curve, poor fit
COc1cnc(NS(=O)(=O)c2ccc(N)cc2)nc1 | P93_24 | 1585 | inhibitor, single point
C[C@@H](C(=O)O)c1ccc(C(=O)c2cccs2)cc1 | CP266 | 642.4 | activator, full curve, poor fit
COC(=O)c1cccnc1 | P93_24 | 3548 | inhibitor, single point
COC(=O)c1cccnc1 | PC49 | 100 | activator, full curve, poor fit
O=S1(=O)OC(c2ccc(O)cc2)(c2ccc(O)cc2)c2ccccc21 | CP215 | 16944 | inhibitor, single point
O=C1/C(=C\c2cccs2)CCC/C1=C/c1cccs1 | CP335 | 16944 | inhibitor, partial curve, poor fit
O=C1/C(=C\c2cccs2)CCC/C1=C/c1cccs1 | 7G8 | 11220 | inhibitor, partial curve, poor fit
O=C1/C(=C\c2cccs2)CCC/C1=C/c1cccs1 | DIV17 | 19011 | inhibitor, partial curve, poor fit
O=C1/C(=C\c2cccs2)CCC/C1=C/c1cccs1 | W2 | 10690 | inhibitor, single point

Some entries from above, unchanged:

* O=C1/C(=C\c2cccs2)CCC/C1=C/c1cccs1 [W2] | Potency 10690 nM (inhibitor, single point)
* CC([C@H](O)c1ccccc1)N(C)C (some centres undefined) [GB4] | Potency 19011 nM (inhibitor, single point)